Part of at least one peptide drawing is inferred or uncertain, most often the ends. Ends that are not written are not given here.
Assays:
[1] = test system: integrin β1; experiment: Integrin β1 level in HUVECs (Western blot); type: cell-based, human; conditions: P3 33 μM; up to 5 h incubation
[2] = target: T1, CD9P-1 and CD81 association (Homo sapiens, UniProt P60033+Q9P2B2); experiment: Immunoprecipitation in HUVECs: CD9P-1 with CD81; type: cell-based; conditions: 33 μM; 2 hrs
T1 construct: endogenous in cells; host or cells: HUVEC
T1 sequence (Q9P2B2 26-879): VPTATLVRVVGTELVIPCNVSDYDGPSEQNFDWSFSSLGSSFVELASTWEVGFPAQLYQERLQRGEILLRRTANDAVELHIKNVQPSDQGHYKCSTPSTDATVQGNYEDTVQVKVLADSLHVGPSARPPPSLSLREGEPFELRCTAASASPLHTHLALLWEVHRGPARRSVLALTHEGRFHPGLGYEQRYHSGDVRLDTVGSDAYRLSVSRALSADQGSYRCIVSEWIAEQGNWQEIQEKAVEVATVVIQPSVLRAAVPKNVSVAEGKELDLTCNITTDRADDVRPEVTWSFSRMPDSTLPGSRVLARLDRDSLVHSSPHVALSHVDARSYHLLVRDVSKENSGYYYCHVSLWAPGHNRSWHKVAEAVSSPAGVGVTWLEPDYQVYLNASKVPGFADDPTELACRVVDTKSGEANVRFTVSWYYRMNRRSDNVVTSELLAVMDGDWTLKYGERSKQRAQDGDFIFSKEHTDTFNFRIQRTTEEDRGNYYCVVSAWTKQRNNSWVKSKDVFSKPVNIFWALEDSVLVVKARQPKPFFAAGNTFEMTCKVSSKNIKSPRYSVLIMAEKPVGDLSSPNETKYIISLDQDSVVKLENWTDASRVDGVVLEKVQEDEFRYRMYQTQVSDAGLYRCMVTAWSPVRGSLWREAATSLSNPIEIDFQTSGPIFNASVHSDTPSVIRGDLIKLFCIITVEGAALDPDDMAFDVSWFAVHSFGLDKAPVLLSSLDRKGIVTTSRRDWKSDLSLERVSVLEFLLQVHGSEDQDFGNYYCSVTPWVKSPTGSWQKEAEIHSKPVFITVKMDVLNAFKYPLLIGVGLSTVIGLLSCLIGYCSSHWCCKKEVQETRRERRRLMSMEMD
T1 sequence (P60033 1-236): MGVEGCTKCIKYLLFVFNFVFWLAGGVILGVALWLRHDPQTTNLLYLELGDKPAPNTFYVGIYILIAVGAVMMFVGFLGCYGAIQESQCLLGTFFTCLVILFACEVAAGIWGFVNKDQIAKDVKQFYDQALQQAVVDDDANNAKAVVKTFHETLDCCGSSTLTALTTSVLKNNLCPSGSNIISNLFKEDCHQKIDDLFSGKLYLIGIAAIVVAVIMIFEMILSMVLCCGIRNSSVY
Method: FIG. 13 is a photograph representing the dissociation of CD9-CD9P-1, CD9P-1-CD151 and CD9-CD151 complexes by P3 in HUVECs. HUVECs incubated for 2 h with 33 μM P3, PCT or solvent in EGM2-MV medium were lysed in brij 97 buffer, then CD81, CD9 or CD151 were immunoprecipitated with the corresponding antibody. Line A: Western blot results obtained with anti-CD9P-1 antibody from immunoprecipitated CD81, CD9 and CD151. Line B: Western blot results obtained with anti-CD9 antibody from immunoprecipitated CD81, CD9 and CD151. Line C: Western blot results obtained with anti-CD151 antibody from immunoprecipitated CD81, CD9 and CD151. PCT: control peptide. IP: immunoprecipitation.
To study more precisely the effect of P3 on the associations of tetraspanins CD9, CD81, and CD151 between them and with CD9P-1, immunoprecipitation (IP) experiments were performed. In the control experiment (with the solvent), CD9P-1 co-precipitated with CD9 and CD81. A weak co-precipitation was observed between […] and CD151. The associations between tetraspanins and CD9P-1 are not modified under PCT condition. However, the interactions between CD9P-1 and CD9 and between CD9P-1 and CD151 are decreased while the HUVECs are incubated for 2 hrs with 33 μM of P3. The association between CD9P-1 and CD81 is not modified by P3 (FIG. 13A).

[3] = target: T2, CD151-CD81 complex (Homo sapiens, UniProt P48509+P60033); experiment: Immunoprecipitation in HUVECs: CD151 with CD81; type: cell-based; conditions: 33 μM; 2 h
T2 construct: endogenous in cells; host or cells: HUVEC
T2 sequence (P48509 1-253): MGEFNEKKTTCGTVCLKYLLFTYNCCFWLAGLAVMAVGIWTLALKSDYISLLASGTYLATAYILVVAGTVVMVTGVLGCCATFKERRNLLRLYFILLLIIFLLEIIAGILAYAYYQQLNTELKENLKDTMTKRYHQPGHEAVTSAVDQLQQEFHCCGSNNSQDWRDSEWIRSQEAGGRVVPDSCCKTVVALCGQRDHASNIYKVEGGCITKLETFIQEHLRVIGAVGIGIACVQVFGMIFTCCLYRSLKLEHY
T2 sequence (P60033 1-236): T1 sequence (P60033 1-236)

[4] = test system: CD151; experiment: CD151 in homogenates of Matrigel implants enriched with NCI-H460 (Western blot); type: in vivo, mice; conditions: 10 mg/kg for 12 days
Method: Analysis of the expression of CD151 and CD9P-1 were performed on western blots on homogenates of implants of Matrigel® enriched with NCI-H460. CD151 profile is characterized by 2 bands on western blots; one at 28 kDa corresponds to CD151 and another one at 26 kDa corresponding to a degraded product of CD151.

[5] = test system: NCI-H460 cells; conditions: n=5
[6] = test system: HUVECs; experiment: Capillaries formation by HUVECs on Matrigel; type: cell-based, human; conditions: 6.5 μM, 13 μM and 33 μM, 18 h
Method: Evaluating the formation of capillaries on Matrigel® was performed by angiogenesis test in vitro described in Grant et al (1989 Cell 58, 933-943). Matrigel® was dropped down the wells of the 96 well plates and maintained for 30 min at 37° C. for the Matrigel® solidification. HUVECs cells were then seeded and 50 μL, of peptide added.
Plates were then incubated for 18 hrs at 37° C. cells were then washed with calcein solution (50 μL/well at 8 μM) and incubated for 20 min. HUVECs alive metabolize calcein in a green fluorescent component.
Peptides were added to the culture medium (EGM2-MV) at concentrations 6.5 μM, 13 μM and 33 μM after inoculation of cells. Plates were incubated at 37° C. for 18 h. Fluorescence labeling was achieved by addition of calcein. Pictures were shot with a fluorescence microscope equipped with a camera (zoom ×40).

[7] = test system: UMUC-3 cells; experiment: Tumor growth test in vivo, UMUC-3 xenograft (no CD9P-1 expression); parameters: species or system mice; conditions: P3 10 mg/kg i.p.; 13 days
Method: Tumor sizes were measured and tumor volume was calculated. Mice were weighted to detect symptoms of pain.
The effect of P3 was then tested on the tumor growth in an in vivo model of xenograft of UMUC-3.

## GNYYCSVTPWVKS [P3]
[1]
  integrin β1 expression (Western blot): neither CD9 expression (FIG. 10B), CD81 (FIG. 10C), and CD9P-1 (FIG. 10D) nor integrin β1 are affected
[2]
  association between CD9P-1 and CD81: not modified
[3]
  complex CD151-CD81: but not the complex CD151-CD81
[4]
  decrease of the band corresponding to CD151 (28 kDa, normalized to GAPDH, vs solvent): 57%
[5]; Example 5, P3 200 μL of 1 mg/mL /injection/48 hrs i.p., after 13 days
  average of tumoral volume: 651.5±80.97 mm^3
[5]; Example 6, P3 10 mg/kg i.p., 13 days
  average tumoral volume: about 651.5±80.9 mm^3
[6]
  capillary tubes formation (capillaries length and junctions number): dose-dependent decreases of both capillaries length and junctions number
[7]
  tumoral volume compared to mice treated with the solvent: did not change significantly
